From patent publication WO2013157105A1
No constants are given. Whether binding was seen depends on the method and setting. Some binding calls cover weakened binding; strength is not graded here.

The chains behind the UniProt entries cited, without tags or fusion partners. Residues count along the entry.
UniProt P98088, residues 28-5654: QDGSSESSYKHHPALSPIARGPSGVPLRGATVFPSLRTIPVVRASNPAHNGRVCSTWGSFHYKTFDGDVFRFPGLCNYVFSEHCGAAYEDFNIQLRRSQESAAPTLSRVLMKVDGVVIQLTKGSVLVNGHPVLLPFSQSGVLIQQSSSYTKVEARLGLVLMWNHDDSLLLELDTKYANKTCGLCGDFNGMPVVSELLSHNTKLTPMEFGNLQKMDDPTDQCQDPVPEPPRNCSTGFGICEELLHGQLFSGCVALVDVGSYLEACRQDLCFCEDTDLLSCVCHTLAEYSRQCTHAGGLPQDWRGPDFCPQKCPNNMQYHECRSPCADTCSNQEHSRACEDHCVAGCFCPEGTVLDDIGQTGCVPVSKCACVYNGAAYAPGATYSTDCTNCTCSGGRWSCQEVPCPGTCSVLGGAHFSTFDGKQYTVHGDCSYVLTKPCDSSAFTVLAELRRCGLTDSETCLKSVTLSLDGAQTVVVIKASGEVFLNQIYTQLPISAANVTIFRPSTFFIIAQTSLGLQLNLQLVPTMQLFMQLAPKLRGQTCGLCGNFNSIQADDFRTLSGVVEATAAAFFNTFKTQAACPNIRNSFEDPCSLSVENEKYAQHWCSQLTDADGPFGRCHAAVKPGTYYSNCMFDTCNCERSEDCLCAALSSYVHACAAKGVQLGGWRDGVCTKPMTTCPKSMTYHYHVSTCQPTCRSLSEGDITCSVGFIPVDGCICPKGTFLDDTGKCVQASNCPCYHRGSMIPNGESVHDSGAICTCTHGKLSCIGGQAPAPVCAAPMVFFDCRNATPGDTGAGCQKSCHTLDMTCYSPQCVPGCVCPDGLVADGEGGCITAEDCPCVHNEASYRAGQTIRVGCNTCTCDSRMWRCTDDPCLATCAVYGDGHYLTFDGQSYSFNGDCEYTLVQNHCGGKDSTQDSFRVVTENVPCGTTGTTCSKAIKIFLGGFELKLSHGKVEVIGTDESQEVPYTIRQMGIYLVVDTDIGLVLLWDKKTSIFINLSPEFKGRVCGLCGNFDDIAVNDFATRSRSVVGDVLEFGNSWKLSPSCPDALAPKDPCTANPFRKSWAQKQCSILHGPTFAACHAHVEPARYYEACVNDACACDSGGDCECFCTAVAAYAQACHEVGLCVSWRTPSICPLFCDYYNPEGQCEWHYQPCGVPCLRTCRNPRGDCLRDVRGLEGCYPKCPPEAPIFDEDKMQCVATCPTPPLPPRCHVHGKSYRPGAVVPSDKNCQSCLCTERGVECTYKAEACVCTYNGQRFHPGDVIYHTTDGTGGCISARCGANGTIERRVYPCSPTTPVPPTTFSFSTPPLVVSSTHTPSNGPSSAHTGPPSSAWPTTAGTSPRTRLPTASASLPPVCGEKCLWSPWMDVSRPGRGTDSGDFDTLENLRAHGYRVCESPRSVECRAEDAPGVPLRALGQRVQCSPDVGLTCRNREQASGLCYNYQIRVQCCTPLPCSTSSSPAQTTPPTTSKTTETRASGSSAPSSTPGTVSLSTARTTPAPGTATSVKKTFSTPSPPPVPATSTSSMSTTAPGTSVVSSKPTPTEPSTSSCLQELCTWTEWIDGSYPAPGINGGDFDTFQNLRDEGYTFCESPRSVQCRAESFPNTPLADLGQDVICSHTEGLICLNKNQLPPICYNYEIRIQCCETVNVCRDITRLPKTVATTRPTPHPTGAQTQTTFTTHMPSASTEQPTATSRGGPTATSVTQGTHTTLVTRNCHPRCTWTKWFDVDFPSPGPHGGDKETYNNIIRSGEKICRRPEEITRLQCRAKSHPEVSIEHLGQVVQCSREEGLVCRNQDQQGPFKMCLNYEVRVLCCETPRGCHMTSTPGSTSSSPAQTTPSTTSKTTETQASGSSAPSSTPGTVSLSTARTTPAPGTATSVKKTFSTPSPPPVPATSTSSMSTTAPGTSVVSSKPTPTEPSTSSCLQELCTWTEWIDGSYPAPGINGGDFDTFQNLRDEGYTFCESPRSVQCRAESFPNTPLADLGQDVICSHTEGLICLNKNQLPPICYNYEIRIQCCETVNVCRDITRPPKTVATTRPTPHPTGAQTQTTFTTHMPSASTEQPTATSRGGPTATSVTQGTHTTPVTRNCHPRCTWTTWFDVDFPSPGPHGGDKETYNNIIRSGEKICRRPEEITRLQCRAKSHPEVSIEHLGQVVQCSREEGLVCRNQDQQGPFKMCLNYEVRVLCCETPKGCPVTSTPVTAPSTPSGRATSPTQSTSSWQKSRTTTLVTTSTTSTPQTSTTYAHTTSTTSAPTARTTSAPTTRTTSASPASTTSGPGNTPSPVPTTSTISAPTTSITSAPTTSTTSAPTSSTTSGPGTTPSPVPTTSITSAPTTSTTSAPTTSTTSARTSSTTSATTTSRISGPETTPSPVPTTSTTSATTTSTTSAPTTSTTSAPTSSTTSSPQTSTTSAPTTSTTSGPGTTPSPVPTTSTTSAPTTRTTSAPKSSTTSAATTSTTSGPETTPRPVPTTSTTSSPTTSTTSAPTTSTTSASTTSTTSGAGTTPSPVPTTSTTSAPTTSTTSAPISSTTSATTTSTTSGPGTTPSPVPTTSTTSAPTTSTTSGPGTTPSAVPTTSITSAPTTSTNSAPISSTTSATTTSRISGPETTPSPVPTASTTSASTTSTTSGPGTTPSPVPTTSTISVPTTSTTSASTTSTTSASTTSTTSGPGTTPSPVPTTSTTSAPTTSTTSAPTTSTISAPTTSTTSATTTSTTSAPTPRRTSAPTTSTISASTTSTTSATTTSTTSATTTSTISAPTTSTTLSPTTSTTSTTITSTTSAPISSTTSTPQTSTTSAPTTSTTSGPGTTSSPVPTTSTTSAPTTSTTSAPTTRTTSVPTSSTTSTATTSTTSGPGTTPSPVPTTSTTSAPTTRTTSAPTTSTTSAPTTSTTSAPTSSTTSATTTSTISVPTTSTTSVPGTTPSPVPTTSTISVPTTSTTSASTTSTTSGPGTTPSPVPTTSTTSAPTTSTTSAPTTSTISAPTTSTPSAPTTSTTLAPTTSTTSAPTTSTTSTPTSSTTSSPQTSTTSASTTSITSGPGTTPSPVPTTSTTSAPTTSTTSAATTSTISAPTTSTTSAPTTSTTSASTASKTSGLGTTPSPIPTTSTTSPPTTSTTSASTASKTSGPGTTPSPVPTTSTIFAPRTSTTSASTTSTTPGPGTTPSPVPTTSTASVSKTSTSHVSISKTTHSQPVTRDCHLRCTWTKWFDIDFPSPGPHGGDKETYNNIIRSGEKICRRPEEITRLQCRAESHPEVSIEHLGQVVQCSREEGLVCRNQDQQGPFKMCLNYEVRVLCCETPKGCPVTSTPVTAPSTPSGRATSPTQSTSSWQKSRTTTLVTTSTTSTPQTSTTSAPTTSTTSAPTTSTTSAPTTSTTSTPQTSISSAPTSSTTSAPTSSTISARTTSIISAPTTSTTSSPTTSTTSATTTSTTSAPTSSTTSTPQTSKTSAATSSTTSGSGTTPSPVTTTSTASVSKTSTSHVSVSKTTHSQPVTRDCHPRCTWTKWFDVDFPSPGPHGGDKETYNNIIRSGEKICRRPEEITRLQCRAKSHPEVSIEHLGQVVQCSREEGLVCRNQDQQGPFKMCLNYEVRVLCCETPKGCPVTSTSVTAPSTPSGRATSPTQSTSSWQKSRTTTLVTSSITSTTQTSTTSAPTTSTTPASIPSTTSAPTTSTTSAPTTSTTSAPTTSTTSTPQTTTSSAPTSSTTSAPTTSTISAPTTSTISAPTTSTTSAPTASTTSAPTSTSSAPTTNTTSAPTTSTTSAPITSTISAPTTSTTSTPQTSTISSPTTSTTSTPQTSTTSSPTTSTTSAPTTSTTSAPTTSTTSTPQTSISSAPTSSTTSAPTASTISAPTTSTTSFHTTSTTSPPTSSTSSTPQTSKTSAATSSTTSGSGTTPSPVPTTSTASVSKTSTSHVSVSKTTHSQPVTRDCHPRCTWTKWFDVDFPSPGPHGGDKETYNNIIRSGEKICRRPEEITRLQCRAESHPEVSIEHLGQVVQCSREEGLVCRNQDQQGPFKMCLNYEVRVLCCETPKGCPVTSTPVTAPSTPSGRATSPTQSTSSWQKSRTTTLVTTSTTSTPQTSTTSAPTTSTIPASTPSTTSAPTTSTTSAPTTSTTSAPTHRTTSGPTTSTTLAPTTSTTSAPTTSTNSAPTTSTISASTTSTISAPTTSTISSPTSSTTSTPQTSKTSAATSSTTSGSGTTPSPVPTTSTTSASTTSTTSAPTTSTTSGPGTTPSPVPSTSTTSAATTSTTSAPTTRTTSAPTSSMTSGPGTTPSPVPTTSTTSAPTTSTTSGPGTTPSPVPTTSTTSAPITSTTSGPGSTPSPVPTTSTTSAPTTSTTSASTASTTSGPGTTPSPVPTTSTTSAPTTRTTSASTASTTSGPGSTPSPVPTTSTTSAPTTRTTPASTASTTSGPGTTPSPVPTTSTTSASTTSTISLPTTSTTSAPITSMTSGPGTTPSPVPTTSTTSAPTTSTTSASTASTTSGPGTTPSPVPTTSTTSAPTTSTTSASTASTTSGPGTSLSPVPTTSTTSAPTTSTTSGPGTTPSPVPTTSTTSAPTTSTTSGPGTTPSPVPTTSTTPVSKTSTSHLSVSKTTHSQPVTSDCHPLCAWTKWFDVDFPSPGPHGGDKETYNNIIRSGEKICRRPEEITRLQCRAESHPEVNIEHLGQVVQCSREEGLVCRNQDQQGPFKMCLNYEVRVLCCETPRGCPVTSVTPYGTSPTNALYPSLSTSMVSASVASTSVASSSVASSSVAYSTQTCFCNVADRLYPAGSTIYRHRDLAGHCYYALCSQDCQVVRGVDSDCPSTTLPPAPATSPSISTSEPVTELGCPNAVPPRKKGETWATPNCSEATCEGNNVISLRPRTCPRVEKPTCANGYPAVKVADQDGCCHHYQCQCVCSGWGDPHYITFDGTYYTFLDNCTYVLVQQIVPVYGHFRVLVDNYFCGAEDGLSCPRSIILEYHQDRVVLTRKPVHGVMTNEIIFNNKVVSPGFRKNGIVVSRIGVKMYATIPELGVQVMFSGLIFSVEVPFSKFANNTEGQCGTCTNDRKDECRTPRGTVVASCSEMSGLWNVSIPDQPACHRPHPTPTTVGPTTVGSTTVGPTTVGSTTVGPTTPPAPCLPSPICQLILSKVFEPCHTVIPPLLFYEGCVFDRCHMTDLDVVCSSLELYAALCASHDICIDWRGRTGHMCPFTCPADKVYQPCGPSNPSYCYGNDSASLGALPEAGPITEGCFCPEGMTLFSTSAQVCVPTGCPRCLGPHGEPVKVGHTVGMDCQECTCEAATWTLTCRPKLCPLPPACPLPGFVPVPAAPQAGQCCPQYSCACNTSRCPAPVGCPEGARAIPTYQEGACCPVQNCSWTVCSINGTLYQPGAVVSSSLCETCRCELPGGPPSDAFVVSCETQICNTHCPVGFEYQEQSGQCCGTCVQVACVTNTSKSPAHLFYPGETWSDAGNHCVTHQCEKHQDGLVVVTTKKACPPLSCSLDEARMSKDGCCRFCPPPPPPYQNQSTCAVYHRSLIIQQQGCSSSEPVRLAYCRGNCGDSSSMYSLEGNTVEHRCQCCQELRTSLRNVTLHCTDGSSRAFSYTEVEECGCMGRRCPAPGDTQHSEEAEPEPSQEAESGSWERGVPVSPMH

How the values were obtained:
[1] = target: mucin subtype 5AC expressed on BxPC3 cells (human) (UniProt P98088); experiment: flow cytometry on BxPC3 cells expressing mucin subtype 5AC, 20 ug/mL antibody
[2] = target: mucin subtype 5AC expressed on BxPC3 cells (human) (UniProt P98088); experiment: flow cytometry on BxPC3 cells expressing mucin subtype 5AC, 20 ug/mL antibody (reference antibody)

| Binder | binding [1] | binding [2] |
| --- | --- | --- |
| mucin subtype 5AC-specific mouse antibody (antibody, V domains shown) VH: EVKLVESGGVLVKSGGSLKLSCAVSGFTFSNYGMSWVRQTPEKRLEWVATISNSGRYTYFPDSVKGRFAISRDNAKNNLYLQMSSLRSADTALYYCTRHLDYANYDAMDYWGQGTSVTVSS VL: DIVLTQSPASLAVSLGQRATISCRASKSVTTSDFSYMHWYQQKPGQPPKLLLYLASNLESGVPDRFSGSGSGTDFTLNIHPVEEEDAATYYCQHSREFPWTFGGGTKLEIK |  | binds |
| humanized antibody 7 (antibody, V domains shown) VH: EVQLVESGGGVVRPGGSLRLSCAASGFTFDNYGMSWVRQAPGKGLEWVSTISNSGRYTYFPDSVKGRFTISRDNAKNSLYLQMNSLRAEDTALYHCARHLDYANYDAMDYWGQGTLVTVSS VL: DIVMTQTPLSSPVTLGQPASISCRASKSVTTSDFSYMHWLQQRPGQPPRLLIYLASNLESGVPDRFSGSGAGTDFTLKISRVEAEDVGVYYCQHSREFPWTFGQGTKVEIK | binds |  |
| humanized antibody 3 (antibody, V domains shown) VH: EVQLLESGGGLVQPGGSLRLSCAASGFTFSNYGMSWVRQAPGKGLEWVSTISNSGRYTYFPDSVKGRFTISRDNSKNTLYLQMNSLRAEDTAVYYCAKHLDYANYDAMDYWGQGTLVTVSS VL: DIQMTQSPSTLAVSLGDRVTITCRASKSVTTSDFSYMHWYQQKPGKAPKLLMYLASNLESGVPSRFIGSGSGTEFTLTISSLQPDDFATYYCQHSREFPWTFGQGTKVEVK | binds |  |
| humanized antibody 4 (antibody, V domains shown) VH: EVQLLESGGGLVQPGGSLRLSCAASGFTFSNYGMSWVRQAPGKGLEWVSTISNSGRYTYFPDSVKGRFTISRDNSKNTLYLQMNSLRAEDTAVYYCAKHLDYANYDAMDYWGQGTLVTVSS VL: DIQMTQSPSSLAVSLGDRVTITCRASKSVTTSDFSYMHWYQQKPGLAPKLLIYLASNLESGVPSRFSGSGSGTDFTFTISSLQPEDIATYYCQHSREFPWTFGQGTKVEVK | binds |  |

More lines, now with the values ahead:

| binding [1] | binding [2] | Binder |
| --- | --- | --- |
| binds |  | humanized antibody 1 (antibody, V domains shown) VH: QVQLVESGGGVVQPGRSLRLSCSSSGFIFSNYGMSWVRQAPEKRLEWVATISNSGRYTYFPDSVKGRFTISRDNSKNTLFLQMDSLRPEDTGVYFCARHLDYANYDAMDYWGQGTPVTVSS VL: DIVMTQSPNSLAVSLGERATINCRASKSVTTSDFSYMHWYQQKPGQPPKLLIYLASNLESGVPDRFSGSGSGTDFTLTISSLQAEDVAVYYCQHSREFPWTFGQGTKLEIK |
| binds |  | humanized antibody 10 (antibody, V domains shown) VH: EVQLLESGGGLVQPGGSLRLSCAASGFTFSNYGMSWVRQAPGKGLEWVSTISNSGRYTYFPDSVKGRFTISRDNSKNTLYLQMNSLRAEDTAVYYCAKHLDYANYDAMDYWGQGTLVTVSS VL: DIVMTQTPLSLSVTPGQPASISCRASKSVTTSDFSYMHWYLQKPGQPPQLLIYLASNLESGVPDRFSGSGSGTDFTLKISRVEAEDVGVYYCQHSREFPWTFGQGTKVEIK |
| binds |  | humanized antibody 6 (antibody, V domains shown) VH: EVQLVESGGGLVKPGGSLRLSCAASGFTFSNYGMSWVRQAPGKGLEWVSTISNSGRYTYFPDSVKGRFTISRDNAKNSLYLQMNSLRAEDTAVYYCARHLDYANYDAMDYWGQGTLVTVSS VL: DIVMTQTPLSSPVTLGQPASISCRASKSVTTSDFSYMHWLQQRPGQPPRLLIYLASNLESGVPDRFSGSGAGTDFTLKISRVEAEDVGVYYCQHSREFPWTFGQGTKVEIK |
| binds |  | humanized antibody 2 (antibody, V domains shown) VH: EVQLLESGGGLVQPGGSLRLSCAASGFTFSNYGMSWVRQAPGKGLEWVSTISNSGRYTYFPDSVKGRFTISRDNSKNTLYLQMNSLRAEDTAVYYCAKHLDYANYDAMDYWGQGTLVTVSS VL: DIVMTQTPLSSPVTLGQPASISCRASKSVTTSDFSYMHWLQQRPGQPPRLLIYLASNLESGVPDRFSGSGAGTDFTLKISRVEAEDVGVYYCQHSREFPWTFGQGTKVEIK |
| binds |  | humanized antibody 9 (antibody, V domains shown) VH: QVQLQESGPGLVRPSQSLKLTCTVSGSTFSNYGMSWVRQTPEKRLEWIGTISNSGRYTYFPDSVKGRVTMLVDTSKNQFSLQMSSVTAADTAVYYCARHLDYANYDAMDYWGQGSLVTVSS VL: DIVMTQTPLSSPVTLGQPASISCRASKSVTTSDFSYMHWLQQRPGQPPRLLIYLASNLESGVPDRFSGSGAGTDFTLKISRVEAEDVGVYYCQHSREFPWTFGQGTKVEIK |
| binds |  | humanized antibody 5 (antibody, V domains shown) VH: EVQLLESGGGLVQPGGSLRLSCAASGFTFSNYGMSWVRQAPGKGLEWVSTISNSGRYTYFPDSVKGRFTISRDNSKNTLYLQMNSLRAEDTAVYYCAKHLDYANYDAMDYWGQGTLVTVSS VL: DIQMTQSPSSLAVSLGDRVTITCRASKSVTTSDFSYMHWYQQTPGKAPKLLIYLASNLESGVPSRFSGSGSGTDYTFTISSLQPEDIATYYCQHSREFPWTFGQGTKLQIT |
